Assay [1] addresses human OB receptor (human) (UniProt P48357). The experiment in a line: flow cytometry on 293 cells; competitor of OB-IgG-1. On the technique in general: In flow cytometry, cells or beads pass a laser one at a time.
For assay [2] the target is unchanged. The experiment in a line: panning of transfected COSN cells; competitor of OB-IgG-1.

Sequences of proteins named here, by UniProt entry; tags and fusion partners are left off. A change or cut given only in a name is not applied to a line headed by its entry. Residues count along the entry.
UniProt P48357, residues 22-1165: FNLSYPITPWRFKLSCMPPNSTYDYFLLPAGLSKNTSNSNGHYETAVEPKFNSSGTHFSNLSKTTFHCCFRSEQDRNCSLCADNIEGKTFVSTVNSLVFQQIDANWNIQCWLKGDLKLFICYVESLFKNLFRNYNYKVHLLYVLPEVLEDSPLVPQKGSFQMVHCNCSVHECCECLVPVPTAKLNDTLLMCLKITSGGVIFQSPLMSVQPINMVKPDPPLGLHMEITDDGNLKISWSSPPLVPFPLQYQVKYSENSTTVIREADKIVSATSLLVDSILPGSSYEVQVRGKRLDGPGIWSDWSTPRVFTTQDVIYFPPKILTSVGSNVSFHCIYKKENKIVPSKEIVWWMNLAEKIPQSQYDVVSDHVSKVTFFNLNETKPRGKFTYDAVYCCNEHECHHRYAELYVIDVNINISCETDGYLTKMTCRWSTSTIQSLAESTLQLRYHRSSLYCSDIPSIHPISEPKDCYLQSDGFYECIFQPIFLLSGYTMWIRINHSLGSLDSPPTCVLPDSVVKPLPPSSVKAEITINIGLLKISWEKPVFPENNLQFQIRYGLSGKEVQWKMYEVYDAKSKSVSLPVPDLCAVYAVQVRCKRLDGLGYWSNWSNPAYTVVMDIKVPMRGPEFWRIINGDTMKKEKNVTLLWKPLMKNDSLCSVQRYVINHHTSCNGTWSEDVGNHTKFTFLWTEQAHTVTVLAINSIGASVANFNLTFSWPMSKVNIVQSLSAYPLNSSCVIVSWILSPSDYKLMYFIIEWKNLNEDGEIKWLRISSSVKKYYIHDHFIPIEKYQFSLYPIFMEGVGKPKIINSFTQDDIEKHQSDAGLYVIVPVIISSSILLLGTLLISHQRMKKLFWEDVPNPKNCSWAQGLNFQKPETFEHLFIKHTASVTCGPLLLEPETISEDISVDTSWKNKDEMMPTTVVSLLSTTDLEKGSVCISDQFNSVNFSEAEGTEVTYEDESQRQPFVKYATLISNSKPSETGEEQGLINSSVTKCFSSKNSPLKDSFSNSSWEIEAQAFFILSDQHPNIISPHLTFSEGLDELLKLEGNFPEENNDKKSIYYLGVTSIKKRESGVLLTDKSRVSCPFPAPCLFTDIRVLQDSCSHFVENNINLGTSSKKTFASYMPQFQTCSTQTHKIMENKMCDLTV
UniProt P41159: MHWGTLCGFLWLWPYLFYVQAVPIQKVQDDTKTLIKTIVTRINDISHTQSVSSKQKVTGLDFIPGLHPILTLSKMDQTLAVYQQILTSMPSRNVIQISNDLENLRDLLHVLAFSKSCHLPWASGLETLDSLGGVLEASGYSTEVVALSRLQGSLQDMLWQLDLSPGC

No constants are given. Whether binding was seen depends on the method and setting. Some binding calls cover weakened binding; strength is not graded here.

Our source for the binding values is US20060205660A1.

In the case of “bacterially expressed human OB protein (from UniProt P41159 22-167) (ligand)”, the binding result in assay [1] and in assay [2] was “binds” each time.
